According to publication doi:10.1101/258632:
No constants are given. Whether binding was seen depends on the method and setting. In cells and extracts the contact can be indirect. Some entries that bind do so weakly or less than the wild type.

By UniProt entry, the sequences of proteins in these tests, tags left out. Residues count along the entry.
UniProt O75581, residues 20-1613: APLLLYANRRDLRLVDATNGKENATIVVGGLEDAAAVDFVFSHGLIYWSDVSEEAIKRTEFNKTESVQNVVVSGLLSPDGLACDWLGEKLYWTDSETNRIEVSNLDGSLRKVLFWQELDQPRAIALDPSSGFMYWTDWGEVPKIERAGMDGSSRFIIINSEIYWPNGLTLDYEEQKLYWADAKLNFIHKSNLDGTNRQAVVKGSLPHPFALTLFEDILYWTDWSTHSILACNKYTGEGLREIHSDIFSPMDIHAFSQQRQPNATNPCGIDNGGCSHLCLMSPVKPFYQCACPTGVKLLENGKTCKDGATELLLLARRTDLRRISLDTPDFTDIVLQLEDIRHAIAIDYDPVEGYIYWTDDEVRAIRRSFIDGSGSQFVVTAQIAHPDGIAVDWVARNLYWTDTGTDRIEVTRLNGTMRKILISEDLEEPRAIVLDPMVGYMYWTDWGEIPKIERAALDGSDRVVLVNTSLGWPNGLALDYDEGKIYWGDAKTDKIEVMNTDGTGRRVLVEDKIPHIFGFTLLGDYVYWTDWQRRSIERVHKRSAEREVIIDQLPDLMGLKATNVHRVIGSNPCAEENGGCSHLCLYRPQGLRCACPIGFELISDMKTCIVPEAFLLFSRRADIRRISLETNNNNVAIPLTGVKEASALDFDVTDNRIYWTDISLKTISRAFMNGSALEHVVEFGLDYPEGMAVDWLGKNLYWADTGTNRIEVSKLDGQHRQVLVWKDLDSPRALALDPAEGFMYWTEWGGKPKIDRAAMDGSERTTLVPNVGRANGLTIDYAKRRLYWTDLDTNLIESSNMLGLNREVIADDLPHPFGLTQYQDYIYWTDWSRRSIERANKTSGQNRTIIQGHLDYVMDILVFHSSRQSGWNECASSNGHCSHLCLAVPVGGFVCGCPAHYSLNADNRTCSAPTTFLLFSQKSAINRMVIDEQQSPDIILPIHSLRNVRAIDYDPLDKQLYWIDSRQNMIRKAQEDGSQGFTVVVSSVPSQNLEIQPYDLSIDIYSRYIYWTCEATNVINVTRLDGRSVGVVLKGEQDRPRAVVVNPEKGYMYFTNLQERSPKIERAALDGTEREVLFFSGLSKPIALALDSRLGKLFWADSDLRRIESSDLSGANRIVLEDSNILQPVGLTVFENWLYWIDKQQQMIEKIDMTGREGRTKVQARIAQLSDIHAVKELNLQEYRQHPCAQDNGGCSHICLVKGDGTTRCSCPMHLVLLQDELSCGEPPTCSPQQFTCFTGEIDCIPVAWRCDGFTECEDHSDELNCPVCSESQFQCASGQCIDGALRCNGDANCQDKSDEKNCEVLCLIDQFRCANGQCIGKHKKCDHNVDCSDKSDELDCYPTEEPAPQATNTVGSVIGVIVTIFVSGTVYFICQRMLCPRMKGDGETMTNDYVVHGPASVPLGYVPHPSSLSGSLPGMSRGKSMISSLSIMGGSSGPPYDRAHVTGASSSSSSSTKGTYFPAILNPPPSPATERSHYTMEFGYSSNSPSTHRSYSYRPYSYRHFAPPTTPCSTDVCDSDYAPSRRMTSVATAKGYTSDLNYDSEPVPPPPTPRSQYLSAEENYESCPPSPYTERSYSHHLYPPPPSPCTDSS
UniProt Q2M2I8: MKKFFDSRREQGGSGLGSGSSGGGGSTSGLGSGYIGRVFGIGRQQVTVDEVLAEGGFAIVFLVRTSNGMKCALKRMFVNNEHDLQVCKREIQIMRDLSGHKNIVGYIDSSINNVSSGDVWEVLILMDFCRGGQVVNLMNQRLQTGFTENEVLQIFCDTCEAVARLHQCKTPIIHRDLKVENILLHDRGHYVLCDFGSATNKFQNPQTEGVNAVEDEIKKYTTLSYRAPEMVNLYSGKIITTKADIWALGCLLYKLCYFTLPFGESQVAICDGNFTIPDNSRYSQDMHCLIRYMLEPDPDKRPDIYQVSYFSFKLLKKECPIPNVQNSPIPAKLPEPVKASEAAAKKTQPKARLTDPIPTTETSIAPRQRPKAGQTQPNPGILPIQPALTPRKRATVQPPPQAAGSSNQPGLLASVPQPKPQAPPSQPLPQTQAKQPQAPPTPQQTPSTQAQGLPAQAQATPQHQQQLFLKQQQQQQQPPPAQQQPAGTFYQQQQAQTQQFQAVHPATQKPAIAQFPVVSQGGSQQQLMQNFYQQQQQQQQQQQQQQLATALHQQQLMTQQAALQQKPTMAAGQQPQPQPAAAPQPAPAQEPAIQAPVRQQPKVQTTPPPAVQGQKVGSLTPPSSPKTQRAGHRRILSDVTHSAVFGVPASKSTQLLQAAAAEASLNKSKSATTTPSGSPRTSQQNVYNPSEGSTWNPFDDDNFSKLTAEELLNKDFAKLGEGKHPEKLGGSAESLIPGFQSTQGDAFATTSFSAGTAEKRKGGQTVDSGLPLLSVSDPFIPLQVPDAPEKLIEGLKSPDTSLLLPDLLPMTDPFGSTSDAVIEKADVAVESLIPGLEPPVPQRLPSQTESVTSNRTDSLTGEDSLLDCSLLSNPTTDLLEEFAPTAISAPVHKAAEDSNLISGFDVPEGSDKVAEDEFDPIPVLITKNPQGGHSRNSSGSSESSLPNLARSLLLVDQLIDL

Target: HA-LRP6 (over-expressed WNT co-receptor LRP6) (UniProt O75581)
Assay: co-IP

binding	Substance
binds	endogenous AAK1 (from UniProt Q2M2I8 1-961) (enzyme)
binds	FLAG-AAK1 (AP2 Associated Kinase 1, over-expressed) (from UniProt Q2M2I8 1-961) (enzyme)
